# Experimental data as given in the supplement of paper PMC6411743.
# ± gives the standard deviation of the averaged measurements. This is a selection; strong and weak results do not stand in their true shares.
# Assays:
# Assay in all cases: NP40-soluble protein abundance relative to vehicle (solubility fold change) (ratio); higher = more soluble protein in presence of AMP-PNP
# [1] = biological target: T1, UniProt Q9UPU7 and related entries
# T1 sequence (whole entry): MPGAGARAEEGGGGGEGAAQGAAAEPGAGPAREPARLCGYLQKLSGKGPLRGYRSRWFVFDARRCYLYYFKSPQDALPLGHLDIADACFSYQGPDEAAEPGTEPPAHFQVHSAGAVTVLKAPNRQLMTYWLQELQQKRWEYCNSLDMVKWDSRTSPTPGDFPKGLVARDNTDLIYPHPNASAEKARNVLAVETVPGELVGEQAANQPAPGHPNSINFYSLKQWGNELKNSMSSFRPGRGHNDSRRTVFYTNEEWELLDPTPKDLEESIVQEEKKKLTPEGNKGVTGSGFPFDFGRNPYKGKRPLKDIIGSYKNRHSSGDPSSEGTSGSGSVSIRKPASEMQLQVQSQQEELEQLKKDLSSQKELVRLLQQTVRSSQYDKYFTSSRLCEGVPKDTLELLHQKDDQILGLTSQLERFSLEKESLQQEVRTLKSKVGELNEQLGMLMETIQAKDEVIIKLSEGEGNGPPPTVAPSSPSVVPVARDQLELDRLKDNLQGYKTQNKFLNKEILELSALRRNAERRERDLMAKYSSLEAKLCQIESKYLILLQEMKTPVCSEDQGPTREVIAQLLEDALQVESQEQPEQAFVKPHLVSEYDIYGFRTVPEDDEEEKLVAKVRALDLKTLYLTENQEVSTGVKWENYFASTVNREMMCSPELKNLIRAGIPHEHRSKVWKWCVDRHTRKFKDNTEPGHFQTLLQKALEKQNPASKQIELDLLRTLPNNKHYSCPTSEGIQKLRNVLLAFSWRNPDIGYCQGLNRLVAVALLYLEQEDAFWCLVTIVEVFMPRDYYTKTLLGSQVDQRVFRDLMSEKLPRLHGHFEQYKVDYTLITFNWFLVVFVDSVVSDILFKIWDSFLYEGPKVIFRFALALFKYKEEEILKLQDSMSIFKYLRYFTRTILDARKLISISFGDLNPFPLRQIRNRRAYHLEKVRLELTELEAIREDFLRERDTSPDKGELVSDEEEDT
# In short: (§1)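 Across three independent experiments, values are fold changes against the detergent-processed vehicle for each replicate, based on vsn-normalised intensities. The samples were Jurkat crude lysate treated with eight concentrations (0.1 to 10 mM) for 10 min at room temperature and then 3 min at 37 °C. Lysate was solubilised with 0.8% NP40 and benzonase, ultracentrifuged, and the supernatant analysed by TMT-labelled LC-MS/MS.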
# [2] = biological target: T2, UniProt Q9Y232 and related entries
# T2 sequence (whole entry): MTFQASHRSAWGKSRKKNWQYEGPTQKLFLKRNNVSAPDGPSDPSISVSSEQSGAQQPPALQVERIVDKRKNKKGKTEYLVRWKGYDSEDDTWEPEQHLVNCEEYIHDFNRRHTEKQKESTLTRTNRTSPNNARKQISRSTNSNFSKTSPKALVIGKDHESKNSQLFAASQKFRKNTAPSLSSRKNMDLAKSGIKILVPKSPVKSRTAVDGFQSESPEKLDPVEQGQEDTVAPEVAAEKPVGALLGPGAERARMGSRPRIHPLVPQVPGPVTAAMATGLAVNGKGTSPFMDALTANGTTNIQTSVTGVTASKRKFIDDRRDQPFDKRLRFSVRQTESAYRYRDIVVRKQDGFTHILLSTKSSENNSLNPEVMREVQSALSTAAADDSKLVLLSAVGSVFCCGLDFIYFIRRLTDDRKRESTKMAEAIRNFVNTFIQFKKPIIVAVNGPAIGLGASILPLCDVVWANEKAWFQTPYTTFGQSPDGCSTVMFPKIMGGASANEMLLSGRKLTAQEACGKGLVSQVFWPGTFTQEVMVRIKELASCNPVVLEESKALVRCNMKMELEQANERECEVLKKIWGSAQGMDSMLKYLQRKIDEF
# In short: as §1
# [3] = biological target: T3, UniProt Q9Y2K1 and related entries
# T3 sequence (whole entry): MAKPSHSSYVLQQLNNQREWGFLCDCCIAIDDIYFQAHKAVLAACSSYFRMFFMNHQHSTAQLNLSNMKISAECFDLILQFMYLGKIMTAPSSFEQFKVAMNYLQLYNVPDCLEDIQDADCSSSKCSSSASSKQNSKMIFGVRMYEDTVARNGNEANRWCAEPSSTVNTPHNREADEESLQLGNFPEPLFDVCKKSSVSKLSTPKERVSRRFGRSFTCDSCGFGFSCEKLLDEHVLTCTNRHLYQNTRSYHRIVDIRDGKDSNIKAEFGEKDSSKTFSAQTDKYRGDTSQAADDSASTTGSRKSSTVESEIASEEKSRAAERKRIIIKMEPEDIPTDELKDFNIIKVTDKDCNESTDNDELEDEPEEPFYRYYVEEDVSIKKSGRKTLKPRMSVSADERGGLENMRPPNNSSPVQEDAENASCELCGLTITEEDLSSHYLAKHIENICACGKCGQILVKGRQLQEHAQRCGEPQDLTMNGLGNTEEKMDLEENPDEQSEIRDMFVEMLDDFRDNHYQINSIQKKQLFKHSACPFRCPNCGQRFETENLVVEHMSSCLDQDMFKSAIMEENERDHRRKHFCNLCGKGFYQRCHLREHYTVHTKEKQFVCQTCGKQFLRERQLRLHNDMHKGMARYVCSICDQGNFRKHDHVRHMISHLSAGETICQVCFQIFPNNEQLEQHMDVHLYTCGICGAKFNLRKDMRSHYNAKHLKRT
# In short: as §1
# [4] = biological target: T4, UniProt Q9Y312 and related entries
# T4 sequence (whole entry): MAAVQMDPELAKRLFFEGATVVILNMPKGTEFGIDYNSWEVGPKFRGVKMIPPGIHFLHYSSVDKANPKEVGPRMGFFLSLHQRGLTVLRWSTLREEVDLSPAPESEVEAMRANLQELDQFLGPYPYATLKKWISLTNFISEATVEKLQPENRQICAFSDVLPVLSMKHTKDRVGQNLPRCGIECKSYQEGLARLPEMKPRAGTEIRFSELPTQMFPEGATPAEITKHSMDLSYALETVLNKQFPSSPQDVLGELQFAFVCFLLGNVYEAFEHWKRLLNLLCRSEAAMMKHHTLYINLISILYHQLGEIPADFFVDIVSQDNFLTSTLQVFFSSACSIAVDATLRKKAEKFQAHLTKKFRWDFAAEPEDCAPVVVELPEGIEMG
# In short: as §1
# [5] = biological target: T5, UniProt Q9Y394 and related entries
# T5 sequence (whole entry): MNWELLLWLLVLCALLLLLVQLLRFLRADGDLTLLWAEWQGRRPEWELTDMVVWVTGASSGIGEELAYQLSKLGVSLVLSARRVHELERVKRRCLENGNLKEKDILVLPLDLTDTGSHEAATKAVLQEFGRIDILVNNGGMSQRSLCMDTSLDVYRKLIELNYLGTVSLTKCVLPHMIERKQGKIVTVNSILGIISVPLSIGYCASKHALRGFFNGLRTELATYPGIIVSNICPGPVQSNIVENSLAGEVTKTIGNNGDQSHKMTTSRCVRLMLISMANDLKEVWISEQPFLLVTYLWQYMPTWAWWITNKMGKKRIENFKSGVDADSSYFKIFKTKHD
# In short: as §1
smiles,measurement,setting,value
Nc1ncnc2c1ncn2[C@@H]1O[C@H](COP(=O)(O)OP(=O)(O)NP(=O)(O)O)[C@@H](O)[C@H]1O [adenylyl imidodiphosphate],NP40-soluble protein abundance,[1]; concentration: 2mM,1.03 ± 0.046
same,NP40-soluble protein abundance,[1]; concentration: 4mM,0.989 ± 0.038
same,NP40-soluble protein abundance,[1]; concentration: 6mM,1.02 ± 0.042
same,NP40-soluble protein abundance,[1]; concentration: 8mM,0.96 ± 0.033
same,NP40-soluble protein abundance,[1]; concentration: 10mM,1.04 ± 0.098
same,NP40-soluble protein abundance,[2]; concentration: 1mM,0.927 ± 0.055
same,NP40-soluble protein abundance,[2]; concentration: 2mM,0.931 ± 0.016
same,NP40-soluble protein abundance,[2]; concentration: 4mM,0.977 ± 0.031
same,NP40-soluble protein abundance,[2]; concentration: 6mM,0.979 ± 0.025
same,NP40-soluble protein abundance,[2]; concentration: 8mM,1.01 ± 0.081
same,NP40-soluble protein abundance,[2]; concentration: 10mM,0.97 ± 0.037
same,NP40-soluble protein abundance,[3]; concentration: 1mM,1.01 ± 0.053
same,NP40-soluble protein abundance,[3]; concentration: 2mM,1.027 ± 0.0057
same,NP40-soluble protein abundance,[3]; concentration: 4mM,1.04 ± 0.11
same,NP40-soluble protein abundance,[3]; concentration: 6mM,0.983 ± 0.034
same,NP40-soluble protein abundance,[3]; concentration: 8mM,0.993 ± 0.092
same,NP40-soluble protein abundance,[3]; concentration: 10mM,0.996 ± 0.066
same,NP40-soluble protein abundance,[4]; concentration: 1mM,0.97 ± 0.073
same,NP40-soluble protein abundance,[4]; concentration: 2mM,0.948 ± 0.088
same,NP40-soluble protein abundance,[4]; concentration: 4mM,0.943 ± 0.054
same,NP40-soluble protein abundance,[4]; concentration: 6mM,0.893 ± 0.082
same,NP40-soluble protein abundance,[4]; concentration: 8mM,0.885 ± 0.066
same,NP40-soluble protein abundance,[4]; concentration: 10mM,0.889 ± 0.078
same,NP40-soluble protein abundance,[5]; concentration: 1mM,0.976 ± 0.059
same,NP40-soluble protein abundance,[5]; concentration: 2mM,0.947 ± 0.031
same,NP40-soluble protein abundance,[5]; concentration: 4mM,0.943 ± 0.063
same,NP40-soluble protein abundance,[5]; concentration: 6mM,0.942 ± 0.026
same,NP40-soluble protein abundance,[5]; concentration: 8mM,0.976 ± 0.044
same,NP40-soluble protein abundance,[5]; concentration: 10mM,0.948 ± 0.038

# Reformatted with bars between the fields: part of the list above.
smiles | measurement | setting | value
Nc1ncnc2c1ncn2[C@@H]1O[C@H](COP(=O)(O)OP(=O)(O)NP(=O)(O)O)[C@@H](O)[C@H]1O [adenylyl imidodiphosphate] | NP40-soluble protein abundance | [2]; concentration: 1mM | 0.927 ± 0.055
same | NP40-soluble protein abundance | [3]; concentration: 8mM | 0.993 ± 0.092
